Laboratory results published in PubChem BioAssay AID445 (National Center for Advancing Translational Sciences (NCATS), 2006).
The other results are listed elsewhere or left out. Further columns of the screen follow, without active or inactive calls. The list favours compounds with an active or inconclusive main result. Potencies come from curve fits of mixed quality, noted in brackets.

Experiment: IkB Signaling
Details: ABC-DLBCL IkBa-CBG/CBR dual luciferase ratio (green luciferase fused to IkBa over red control in OCI-Ly3 lymphoma cells), 4 h
Method in brief: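 Curves were fitted separately to fusion (green), unfused (red) and ratio luminescence, then classed by r2, magnitude and activity. Cells: OCI-Ly3, 4 h compound plus doxycycline at 37C; 10 uM MG-132 defined full response.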

[1] = measured here: control luc red channel unless noted

Structure (SMILES): Cn1nnnc1SCCCNCc1cc(Cl)ccc1OCc1ccccc1F
- AC50 [1]: 39.8 µM [falling, single point]

Structure (SMILES): CCCCCc1nn2cc(-c3ccccc3)nc2s1
- AC50 [1]: 15.8 µM [falling, partial curve]

Structure (SMILES): Cc1cccc(N2CCN(S(=O)(=O)c3c(C(=O)N4CCC(C)CC4)c(C)n(C)c3C)CC2)c1C
- AC50 [1]: 39.8 µM [falling, single point]

Structure (SMILES): COC(=O)c1ccc(NC(=O)CC2C(=O)N(c3ccccc3)C(=O)N2Cc2ccco2)cc1 (stereo not drawn)
- AC50 [1]: 25.1 µM [falling, single point]

Structure (SMILES): Cn1c(CN2CCCCC2)nc2cc(NC(=O)c3ccccc3)ccc21
- AC50 [1]: 12.6 µM [falling, partial curve]

Structure (SMILES): Cc1ccc(C)c(N2CCN(S(=O)(=O)c3ccc4c(c3)OCCO4)CC2)c1
- AC50 [1]: 20 µM [falling, partial curve]

Structure (SMILES): CCOC(=O)CS(=O)(=O)c1nc(-c2ccc(F)cc2)cc(C(F)(F)F)n1
- AC50 [1]: 2.51 µM [falling, full curve]

Structure (SMILES): O=C(Nc1ccc(F)cc1F)N1CCN(c2ccc(Cl)c(Cl)c2)CC1
- AC50 [1]: 7.94 µM [falling, full curve]

Structure (SMILES): Cc1ccc(Cl)cc1NC(=O)Cn1ncc2c(C)n(Cc3ccccc3F)c(C)c2c1=O
- AC50 (measured here: IkB-luc green channel): 39.8 µM [rising, single point]
- AC50 (measured here: control luc red channel): 31.6 µM [rising, single point]

Structure (SMILES): COc1ccc(-c2nc(-c3ccccc3)c(-c3ccc(F)cc3)[nH]2)c(OC)c1C
- AC50 [1]: 15.8 µM [falling, partial curve]

Structure (SMILES): CCOC(=O)c1ccc(Oc2nc(SC)nc(N(C)C)n2)cc1
- AC50 [1]: 12.6 µM [falling, partial curve]

Structure (SMILES): Cc1ccc(C(C(=O)NC2CCCCC2)N(Cc2cccnc2)C(=O)C2COc3ccccc3O2)o1 (stereo not drawn)
- AC50 [1]: 316 nM [rising, partial curve, poor fit] [measured here: IkB-luc green channel]

Structure (SMILES): CCOc1ccc(CCNC(=O)c2ccc3c(c2)sc2nc(-c4ccc(F)cc4)cn23)cc1OCC
- AC50 [1]: 12.6 µM [falling, partial curve]

Structure (SMILES): O=S(=O)(NCCc1csc2nc(-c3ccc(F)cc3)nn12)c1ccc(Oc2ccccc2)cc1
- AC50 [1]: 3.16 µM [rising, single point]

Structure (SMILES): COc1ccc(C2=NOC(CN3C(=O)c4ccccc4S3(=O)=O)C2)cc1 (stereo not drawn)
- AC50 [1]: 12.6 µM [falling, partial curve]

Structure (SMILES): Cc1ccc(C(CC(=O)Nc2ccc(F)c(Cl)c2)N2Cc3ccccc3C2=O)cc1 (stereo not drawn)
- AC50 [1]: 20 µM [falling, single point]

Structure (SMILES): CC(C)c1ccc(NC(=O)CCn2c(=O)c3cccn3c3ccccc32)cc1
- AC50 [1]: 25.1 µM [falling, partial curve]

Structure (SMILES): COc1cc(C(=O)Nc2nonc2-c2ccc(Cl)cc2)cc(OC)c1OC
- AC50 [1]: 2.51 µM [falling, partial curve]

Structure (SMILES): CCOC(=O)c1ccn(-c2nc(-c3cccc(OC)c3)cc(C(F)(F)F)n2)n1
- AC50 [1]: 7.94 µM [falling, partial curve]

Structure (SMILES): C=CCc1ccc(OCC(O)COCC)c(OC)c1 (stereo not drawn)
- AC50 [1]: 20 µM [rising, partial curve]

Structure (SMILES): CCOC(=O)c1[nH]c(C)c(CCC(=O)Nc2ccc(Br)c(C)c2)c1C
- AC50 [1]: 31.6 µM [falling, partial curve]

Structure (SMILES): COc1ccc(C(=O)N(Cc2ccco2)Cc2ccccc2F)cc1Cl
- AC50 [1]: 31.6 µM [falling, single point]

Structure (SMILES): O=C(NCC(c1ccco1)S(=O)(=O)c1ccc(Cl)cc1)c1ccc(C(F)(F)F)cc1 (stereo not drawn)
- AC50 [1]: 20 µM [falling, partial curve]

Structure (SMILES): Cc1ccc(Cn2c(SCc3ccc(C(=O)O)cc3)nc3cccnc32)cc1
- AC50 [1]: 15.8 µM [falling, partial curve]

Structure (SMILES): CCOc1ccc(CCNC(=O)c2ccc3nc(N4CCC(C)CC4)sc3c2)cc1OCC
- AC50 [1]: 12.6 µM [falling, partial curve]

Structure (SMILES): CCN(CCCNC(=O)CN1N=C(c2ccccc2)CCC1=O)c1cccc(C)c1
- AC50 [1]: 20 µM [falling, partial curve]

Structure (SMILES): COc1ccc(OC)c(Nc2nc(-c3ccc(O)c(O)c3)cs2)c1
- AC50 [1]: 39.8 µM [falling, single point]

Structure (SMILES): CCOC(=O)c1ccc(NC(=O)c2noc3c2CCCC3)cc1
- AC50 [1]: 0.631 µM [falling, full curve]

Structure (SMILES): COc1cccc(NC(=O)CSc2nnc(Cc3cccn3C)n2-c2ccc(F)cc2)c1
- AC50 [1]: 12.6 µM [falling, partial curve]

Structure (SMILES): O=C(CCC(=O)N1CCOc2ccccc21)NCc1cccs1
- AC50 [1]: 20 µM [rising, partial curve]

Structure (SMILES): O=S(=O)(NCCc1nnc2ccc(SCc3cccc(Cl)c3)nn12)c1ccccc1
- AC50 [1]: 25.1 µM [falling, partial curve]

Structure (SMILES): Cc1cc(N2CCN(C)CC2)nc2ccc(NC(=O)Nc3ccc(F)cc3)cc12
- AC50 [1]: 12.6 µM [falling, single point]

Structure (SMILES): CC(=O)N1CCCc2cc(S(=O)(=O)N3CCCC(C(=O)Nc4ccc(F)cc4F)C3)ccc21 (stereo not drawn)
- AC50 [1]: 0.158 µM [falling, full curve, poor fit]

Structure (SMILES): COc1ccc(Cn2c(CNC(=O)Cc3ccc(OC)c(OC)c3)nc3cccnc32)cc1
- AC50 [1]: 20 µM [rising, single point]

Structure (SMILES): COc1ccc(CCNC(=O)c2ccc3nc(-c4ccco4)c(-c4ccco4)nc3c2)cc1OC
- AC50 [1]: 7.94 µM [falling, partial curve]

Structure (SMILES): Cc1ccc(NC(=O)CSc2nc(=O)n(Cc3ccncc3)c3c2CCC3)cc1Cl
- AC50 [1]: 15.8 µM [falling, partial curve]

Structure (SMILES): COc1ccc(Nc2ncc(C(=O)Nc3cccc(OC)c3)c3ccccc23)cc1
- AC50 [1]: 5.01 µM [falling, partial curve]

Structure (SMILES): Cc1cccc(OCCCC(=O)Nc2ccc(S(=O)(=O)Nc3onc(C)c3C)cc2)c1
- AC50 [1]: 12.6 µM [falling, partial curve]

Structure (SMILES): O=C(c1cccs1)c1ccc(-c2cccs2)s1
- AC50 [1]: 10 µM [falling, partial curve]

Structure (SMILES): Cc1ccc(NC(=O)NC(C)c2c(-n3cccc3)sc(C)c2C)c(C)c1 (stereo not drawn)
- AC50 [1]: 0.0398 µM [falling, full curve, poor fit]

Structure (SMILES): COc1ccc(NC(=O)c2ccco2)cc1NC(=O)c1cccc(C)c1OC
- AC50 [1]: 0.501 µM [rising, full curve, poor fit]

Structure (SMILES): Cc1ccc(C)c(N2CCN(C(=O)c3ccc(NS(=O)(=O)c4c(C)noc4C)cc3)CC2)c1
- AC50 [1]: 10 µM [falling, partial curve]

Structure (SMILES): O=C(Nc1ccccc1)C1CCN(S(=O)(=O)c2ccc3c(c2)CCCN3C(=O)C2CCC2)CC1
- AC50 [1]: 25.1 µM [falling, single point]

Structure (SMILES): COC(=O)c1[nH]c2cc(C)ccc2c1NC(=O)CN1CCc2cc(OC)c(OC)cc2C1
- AC50 [1]: 12.6 µM [falling, partial curve]

Structure (SMILES): CC1(C)CC(NC(=O)c2coc(=O)c(Br)c2)CC(C)(C)N1
- AC50 [1]: 31.6 µM [rising, single point] [measured here: IkB-luc green channel]

Structure (SMILES): CCN(CC)CCNC(=O)c1cc2c(-c3ccc(Cl)cc3)nn(C)c2s1
- AC50 [1]: 39.8 µM [rising, single point] [measured here: IkB-luc green channel]

Structure (SMILES): Cc1ccc2c(CN3CCN(c4ccc(Cl)cc4)CC3)cc(=O)oc2c1
- AC50 [1]: 39.8 µM [falling, single point]

Structure (SMILES): COc1ccc(C(=O)NCC(=O)OCc2cc(=O)n3nc(C4CCCCC4)sc3n2)cc1
- AC50 [1]: 0.501 µM [rising, full curve]

Structure (SMILES): CC(=O)c1ccc(NC(=O)c2cnc(N3CCCC3)nc2C)cc1
- AC50 [1]: 7.94 µM [rising, single point] [measured here: IkB-luc green channel]

Structure (SMILES): Cc1cc(C(=O)CSc2nnnn2C)c(C)n1-c1ccc2c(c1)OCCO2
- AC50 [1]: 20 µM [falling, single point]

Structure (SMILES): O=C(C1CCCCC1)N(Cc1cccnc1)c1nc2ccc(Cl)cc2s1
- AC50 [1]: 6.31 µM [falling, partial curve]

Structure (SMILES): CCOc1ccc(CN(CCc2ccc3c(c2)OCO3)Cc2cc(OC)cc(OC)c2)cc1
- AC50 [1]: 2.51 µM [falling, partial curve]

Structure (SMILES): COc1ccc2nc(SCC(=O)N(C)C3CCCCC3)c(C#N)cc2c1
- AC50 [1]: 15.8 µM [falling, partial curve]

Structure (SMILES): Cc1cc(=O)[nH]c2nnc(SCc3cccc(C(F)(F)F)c3)n12
- AC50 [1]: 15.8 µM [falling, partial curve, poor fit]

Structure (SMILES): COc1ccc(C(=O)Nc2ccc(-c3nc4cc(C)ccc4o3)c(O)c2)cc1
- AC50 [1]: 12.6 µM [falling, partial curve]

Structure (SMILES): Cc1nc(N2CCOCC2)c2c(C(=O)N3CCN(c4cccc(C(F)(F)F)c4)CC3)c(C)oc2n1
- AC50 [1]: 39.8 µM [falling, single point]

Structure (SMILES): Cc1cccc2nc(-c3ccc(Cl)s3)c(Nc3ccc4c(c3)OCCO4)n12
- AC50 [1]: 20 µM [falling, single point]

Structure (SMILES): Cc1ccc(OCC(=O)OCc2cc(=O)n3ccsc3n2)cc1C
- AC50 [1]: 0.501 µM [rising, full curve, poor fit]

Structure (SMILES): COc1ccccc1N1CCN(c2ncc3c(n2)CCN(Cc2ccccc2C)C3)CC1
- AC50 [1]: 20 µM [falling, partial curve]

Structure (SMILES): Cn1c(SCc2nc3ccccc3s2)nnc1-c1cccs1
- AC50 [1]: 15.8 µM [falling, partial curve]

Structure (SMILES): CCOC(=O)c1ccc(NC(=O)CCc2c(C)nc3cc(-c4ccc(OC)cc4OC)nn3c2C)cc1
- AC50 [1]: 0.501 µM [falling, full curve]

Structure (SMILES): CC(C)Oc1ccc(C(=O)N2CCC(c3nc4ccccc4s3)CC2)cc1
- AC50 [1]: 15.8 µM [falling, partial curve]
